According to publication PMC5864096:
These are yes or no findings as the source states them, for the method shown. A result given as binding can be weak or reduced; the word gives no strength.

Biological target: T1, CASY-1 C-terminal (cytoplasmic tail of CASY-1), yeast two-hybrid construct (C. elegans) (UniProt G5ED46)
T1 sequence: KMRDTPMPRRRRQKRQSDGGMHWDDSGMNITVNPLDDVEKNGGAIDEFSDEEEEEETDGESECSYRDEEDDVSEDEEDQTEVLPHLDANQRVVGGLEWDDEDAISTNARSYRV
Experiment: two-hybrid; yeast two-hybrid; CASY-1 C-terminal against UNC-104 domain constructs; spotting with and without selection; bait and prey not told

Row | binding | Substance
1 | binds weakly | UNC-104 fork head domain FHA (aa 460-633), yeast two-hybrid construct (C. elegans) (domain or fragment)
2 | binds weakly | UNC-104 motor domain (aa 1-356), yeast two-hybrid construct (C. elegans) (domain or fragment)
